Source: the supplement of paper PMC11732987, “Enantioselective OTUD7B fragment discovery through chemoproteomics screening and high-throughput optimisation” (Communications Chemistry, 2025)
The other results are listed elsewhere or left out. The data scatter; read single values as rough.

system: T1, SLK C358; test: log2 mean competition ratio of IA-DTB cysteine labelling (DMSO/compound) (log2 ratio); higher = stronger cysteine engagement by compound; conditions: 50 µM; treatment time: 4 h; cell line lysate: HEK293T
T1 sequence (whole entry): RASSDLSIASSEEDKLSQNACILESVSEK
Method: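 IA-DTB competitive cysteine chemoproteomics in HEK293T RIPA lysate. Lysates were treated with compound 29 or 30 at 50 or 200 µM for 4 h, then IA-DTB (500 µM, 1 h), trypsin-digested, NeutrAvidin-enriched and analysed by diaPASEF. Competition ratio = intensity DMSO / intensity compound (n=4 treated, n=64 DMSO); binding: mean log2 CR ≥ 1 and p ≤ 0.05 plus QC filters. Target is the cysteine site.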

Row | Structure (SMILES) | log2 mean competition ratio
1 | O=C(CCl)N[C@H]1CCCc2ccccc21 | -0.24
2 | O=C(CCl)N[C@@H]1CCCc2ccccc21 | -0.315

same assay, conditions: 200 µM; treatment time: 4 h; cell line lysate: HEK293T

Row | Structure (SMILES) | log2 mean competition ratio
3 | O=C(CCl)N[C@H]1CCCc2ccccc21 | -0.189
4 | O=C(CCl)N[C@@H]1CCCc2ccccc21 | -0.0833
